Measurements taken from article PMC7022936.

Assays:
[1] = system: DcGliZ core (Zn2Cys6 domain) (Dichotomomyces cejpii FS110); assay: EMSA; conditions: EMSA: Beyotime chemiluminescent kit, 5 uL of 1 uM probe + 2 uL protein (~1 mg/mL in Methods, 100 mg/mL in legend), buffer not stated; recombinant protein; protein details: C-terminal His6 (pET22b, from primers); label: biotin (EMSA)
[2] = system: DcGliZ full-length (Dichotomomyces cejpii FS110); assay: EMSA; conditions: EMSA: Beyotime chemiluminescent kit, 5 uL of 1 uM probe + 2 uL protein (~1 mg/mL in Methods, 100 mg/mL in legend), buffer not stated, recombinant protein, protein details: C-terminal His6 (pET22b, from primers), label: biotin (EMSA)

Sequence | binding result [1] | binding result ([2]; clearest shift) | binding result [2]
GTTTCTATGTCTATATCGGAGGAGTGATCAACGGCGTCCGAAAATTCGGCCCGCGGCTGTCTTAGGGCTGGCCTGCAGGTGTAGGGTTCATTATGAAAGACTGGTAGTATTATGCTGCTATTTAGTCAAAAGCAGAAGAACAGTTTGTCTTTAGACCTTGAATAGATATCTGTCAAGACAAGAGCCAAGAAAGTCCCATCACCATGGCAGACATGACCGAACGACCTTCTGATCTCGTTGTGGACAGGCTGGTTCTCTTCG (double strand) [pG (gliG promoter)] | binds | binds | 
TAGTCTATCACTGAACAGTTGAATGAATTTGTTTCAAGACAGCTAAAGCTCCATTCTAGCCGTACGTACTGGTAGTTCTCCGCATAGAAACATATATCTCTCTGCTTGGTCAAAGTCAGGTATCGCCGACAAGTCTTAATATCTGCAGAGTATTCGGTGACCGAAATAGGGTCGGAATATAAGCCATATATATCACTGTTCTGGAAATCAAGAAAATATAACAGTTGAATACTCACTTTTCTAACATTCCAACAATCAGTTGAGCTCGATCACA (double strand) [pM (gliM promoter)] |  |  | binds
TTACTTCTTGGTCTACTCCGTATTGTGAATCGAAATGAGATAGAAGTATAGTTCTACTGTACTGGTTTCTATCTGCTTAAAATAAATACAATTGTGCCTTCTATACAGATCAGTATGTAGAATGAACTGATAGACCTCCAGGAGGTTCTTCCTCCGAGCCTGCAACGCCCAAGAGGAGAACTGTGCATACGCCAGGACAGATTTTCGGCCTCCGAAAAGGACTGAGGATAGTATCTGCCATGTTTATATATAACTGAGGGAATAGACCAGGTAGATAACAGCAAAATCAACTAAACATCATC (double strand) [pN (gliN promoter)] |  |  | binds

Construct, isoform or probe ends are uncertain for at least one entry.
